# Test results: the supplement of paper PMC8291772
# Sequences of proteins named here, by UniProt entry; tags and fusion partners are left off. A change or cut given only in a name is not applied to a line headed by its entry.
# UniProt P06526: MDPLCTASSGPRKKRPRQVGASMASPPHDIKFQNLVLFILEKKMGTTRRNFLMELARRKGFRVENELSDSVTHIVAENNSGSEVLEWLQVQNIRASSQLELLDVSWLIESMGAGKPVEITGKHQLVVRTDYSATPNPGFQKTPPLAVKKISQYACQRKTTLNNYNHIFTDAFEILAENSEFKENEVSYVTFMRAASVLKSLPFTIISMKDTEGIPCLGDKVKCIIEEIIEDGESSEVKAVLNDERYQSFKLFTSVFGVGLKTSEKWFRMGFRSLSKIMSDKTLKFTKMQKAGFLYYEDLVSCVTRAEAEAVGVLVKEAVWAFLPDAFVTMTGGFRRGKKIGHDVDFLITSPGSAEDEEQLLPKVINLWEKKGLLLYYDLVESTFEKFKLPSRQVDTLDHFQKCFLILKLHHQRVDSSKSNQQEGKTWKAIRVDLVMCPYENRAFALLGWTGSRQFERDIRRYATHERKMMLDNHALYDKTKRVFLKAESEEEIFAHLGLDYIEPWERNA
# ± gives the standard error. The list shows a part of the results. Repeats in this data set agree poorly, so a single value says little.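 Every DNA sequence of one to five nucleotides was in the library. Extension ability overall was judged using a cutoff equal to the blocked version's mean plus three standard deviations; the probe detects only chains with at least seven added dT.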
# Molecular target: terminal deoxynucleotidyl transferase (calf thymus) (UniProt P06526)
# Experiment: TdT poly-dT extension signal (Cy3 hybridisation fluorescence, uncapped minus capped) (fluorescence a.u.); higher = more efficient initiation of TdT extension
# Conditions: initiator chemistry: D-DNA, free 3'-OH (5'-tethered via HEG linker)
# Description: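 All mono- to pentamer initiator sequences were made by photolithographic in situ synthesis (reverse 5'->3' direction) on glass on a single hexaethylene glycol linker. Each was made in uncapped and DMTr-dT-capped versions, about 11 replicate features each. Arrays were extended with calf thymus TdT (0.2 U/uL) and 100 uM dTTP in TdT buffer with 0.25 mM CoCl2 for 120 min at 37 C, then hybridised with an rA18-Cy3 probe at 4 C and scanned at 532 nm. The value is the mean uncapped signal minus the mean capped signal of the same sequence.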
row,Sequence,TdT poly-dT extension signal
1,ACCGC,2770 ± 390
2,GTTTC,3590 ± 110
3,CTTTA,3620 ± 300
4,TAGGT,3470 ± 360
5,GTGAC,3330 ± 350
6,TGCGC,3080 ± 370
7,GACCA,3330 ± 330
8,TCCAG,3640 ± 440
9,CGAG,3970 ± 210
10,GCTGT,3760 ± 350
11,TTCGG,3680 ± 460
12,GTAG,3450 ± 290
13,AGAGC,3080 ± 350
14,CAAAT,3890 ± 480
15,TTGGC,3370 ± 520
16,ACCAT,3670 ± 330
17,GCATC,3680 ± 410
18,CTATT,3550 ± 540
19,TTATA,4100 ± 450
20,TCCGC,3840 ± 310
21,CATAC,2610 ± 250
22,CTCGT,4000 ± 370
23,GACCG,3570 ± 370
24,TAAAA,4580 ± 490
25,ACCTA,3840 ± 340

row,Sequence,TdT poly-dT extension signal
1,GAGGT,4350 ± 500
2,AACAT,3570 ± 360
3,GCAT,3540 ± 280
4,AATAA,4630 ± 360
5,TTGTT,4600 ± 230
6,CGGAA,4680 ± 300
7,TCGTC,3390 ± 350
8,CAGGG,4370 ± 500
9,ATAAG,3170 ± 540
10,AAAG,4350 ± 270
11,TCGG,4020 ± 670
12,GCTAA,3970 ± 660
13,CCAGG,4360 ± 760
14,TGGGG,4470 ± 820
15,AGTCG,3490 ± 290
16,TCCTT,2950 ± 330
17,CGCTT,3560 ± 380
18,TATTC,3180 ± 400
19,GAGGA,4570 ± 460
20,GCAAG,4850 ± 320
21,TTCAT,4820 ± 450
22,CAAAG,4150 ± 380
23,AGTGC,3130 ± 310
24,CACAA,3750 ± 500
25,GCTGG,3290 ± 450

row,Sequence,TdT poly-dT extension signal
1,CCCC,3020 ± 370
2,ACCA,3990 ± 250
3,CTTAC,3300 ± 220
4,GGTCG,3560 ± 360
5,ACAA,3390 ± 380
6,TAATC,3100 ± 240
7,GAGGG,4130 ± 590
8,CTATC,3930 ± 510
9,TGTAA,4160 ± 370
10,TCCC,2840 ± 270
11,CCATA,4340 ± 220
12,CCCAA,3910 ± 580
13,CTACA,2330 ± 380
14,CGCA,3430 ± 300
15,CTTGC,3550 ± 340
16,AATCA,3600 ± 340
17,TTCCC,2390 ± 330
18,TAGTC,3390 ± 410
19,CCGTG,3590 ± 370
20,AGCCT,3000 ± 370
21,TCCGG,5040 ± 810
22,CCTCG,4110 ± 540
23,TGCG,3520 ± 440
24,TAGTA,2940 ± 390
25,GGCTA,3760 ± 500

row,Sequence,TdT poly-dT extension signal
1,ATCGA,3460 ± 440
2,GTCAG,4400 ± 740
3,ATACA,4140 ± 330
4,ACCAA,4100 ± 330
5,AACGT,3780 ± 380
6,ACTCA,3770 ± 360
7,ATCAC,3350 ± 320
8,GCCCC,3180 ± 240
9,TAACT,3000 ± 390
10,CCGC,4000 ± 290
11,TCCAA,3460 ± 450
12,GACCT,3490 ± 290
13,AAGCG,3720 ± 340
14,TTTGG,3580 ± 320
15,CCAGA,3770 ± 410
16,CACGA,4030 ± 560
17,AGAG,3660 ± 370
18,ATGAT,3710 ± 330
19,AGGAT,2910 ± 580
20,TTTAA,4100 ± 560
21,GACGC,3440 ± 440
22,GAGTA,3560 ± 600
23,CACCT,3470 ± 230
24,ATACT,3470 ± 200
25,TGGTC,3510 ± 380

row,Sequence,TdT poly-dT extension signal
1,GACAA,4470 ± 460
2,CAAGT,4020 ± 350
3,CTCTC,3540 ± 300
4,AAGA,3630 ± 450
5,GATGC,2610 ± 340
6,GCTCT,3480 ± 300
7,ACCG,3850 ± 310
8,ACAC,2900 ± 290
9,CCAT,3880 ± 700
10,CAGCA,4140 ± 260
11,CAAAA,4990 ± 630
12,TTGAA,5100 ± 620
13,TCGGT,4090 ± 410
14,CAAT,4590 ± 370
15,GGTTT,3860 ± 420
16,CGTCT,3720 ± 240
17,CTGCC,3030 ± 320
18,GACA,3700 ± 450
19,AATTC,3070 ± 320
20,ACTTT,4990 ± 660
21,CCTGC,3670 ± 400
22,GGAGT,3140 ± 420
23,CTCTT,3710 ± 230
24,CCAAG,4010 ± 380
25,AAGTT,3550 ± 360

# Single entries from the list.
# TGCGC | TdT poly-dT extension signal: 3080 ± 370
# AAGA | TdT poly-dT extension signal: 3630 ± 450
# CCTGC | TdT poly-dT extension signal: 3670 ± 400
# GGTCG | TdT poly-dT extension signal: 3560 ± 360
# ACCTA | TdT poly-dT extension signal: 3840 ± 340

# (list continues)

row,Sequence,TdT poly-dT extension signal
1,CTGGT,3000 ± 490
2,GCGTT,3810 ± 370
3,GACAT,4020 ± 430
4,GTATC,2420 ± 400
5,AAGGG,4390 ± 370
6,CTCGC,2880 ± 390
7,TATG,3080 ± 440
8,AGTTC,2580 ± 360
9,CGTAA,4290 ± 300
10,CCTAG,3240 ± 360
11,TCTGT,3170 ± 400
12,GCTTT,3790 ± 470
13,CGATA,3880 ± 350
14,AGAGG,4420 ± 430
15,CAGAT,2830 ± 420
16,GATC,2210 ± 330
17,AGTCA,3040 ± 560
18,TTAAC,2780 ± 280
19,AATCT,3760 ± 120
20,CAGAA,3740 ± 400
21,CTTCG,2980 ± 280
22,TCTTG,3360 ± 450
23,TCGAA,4240 ± 400
24,CGACT,3500 ± 330
25,AGGCG,4410 ± 520

row,Sequence,TdT poly-dT extension signal
1,GTTCT,3710 ± 180
2,ACCCT,2970 ± 350
3,TCGCA,3940 ± 450
4,GGTT,4210 ± 270
5,ATGA,3570 ± 410
6,CGCT,3390 ± 390
7,GATGA,3690 ± 400
8,TTCTA,3950 ± 390
9,AGAT,3250 ± 260
10,GCGCT,3330 ± 340
11,GCAA,4550 ± 380
12,TCAC,2800 ± 310
13,CGCTG,3770 ± 520
14,GAACA,4160 ± 350
15,GAATC,2930 ± 340
16,GATCT,3910 ± 350
17,AGCA,3380 ± 410
18,TGAG,3790 ± 270
19,TACGT,3560 ± 290
20,CCAGT,3940 ± 570
21,AGCGG,5020 ± 300
22,GTAC,3160 ± 510
23,TGCGA,2810 ± 460
24,CCATG,3970 ± 420
25,ATCGC,4160 ± 380

row,Sequence,TdT poly-dT extension signal
1,GCCAA,4620 ± 360
2,CTGAT,3810 ± 340
3,AGCGC,2980 ± 360
4,CTAAC,3340 ± 330
5,GTCGT,3670 ± 310
6,GGTCA,3960 ± 660
7,CAAGA,2860 ± 470
8,ACGTT,3510 ± 370
9,GCTT,3220 ± 370
10,CTCG,3410 ± 380
11,AAGAA,3750 ± 450
12,GTTAC,2870 ± 360
13,GAGTT,3340 ± 360
14,CCTAT,4050 ± 330
15,CCTCC,3160 ± 270
16,ACGCA,3870 ± 660
17,AGGTA,4300 ± 370
18,ACTT,2520 ± 350
19,AAACA,2990 ± 580
20,TGAGG,5500 ± 800
21,TGGCG,3920 ± 540
22,TAGAG,3800 ± 390
23,ATCA,3350 ± 340
24,CTCCC,3310 ± 160
25,GTAGT,3460 ± 390

# Three records picked at random from those above:
row,Sequence,TdT poly-dT extension signal
2,CTGAT,3810 ± 340
11,AAGAA,3750 ± 450
4,CTAAC,3340 ± 330

# Going on with the list.

row,Sequence,TdT poly-dT extension signal
1,AGTTA,4320 ± 440
2,TTGTA,5020 ± 600
3,CCGCG,4200 ± 710
4,GATAA,4730 ± 310
5,TGCAA,4370 ± 420
6,CCTAC,3440 ± 260
7,ACTCT,3860 ± 280
8,GTGC,2770 ± 350
9,TAGCA,3270 ± 470
10,CAACC,2780 ± 330
11,CTAAG,3800 ± 870
12,GGTAA,3940 ± 370
13,TAGG,3640 ± 500
14,ACTCG,3670 ± 420
15,GTTAG,3920 ± 670
16,CACG,3380 ± 340
17,TACTT,3870 ± 260
18,GCCCG,2610 ± 380
19,ATAG,3650 ± 330
20,GAGCA,3670 ± 440
21,AGCC,3710 ± 210
22,TATTA,4370 ± 730
23,GTGTT,4400 ± 340
24,ACAAG,4810 ± 490
25,CCGTC,4100 ± 460

row,Sequence,TdT poly-dT extension signal
1,ACGC,3120 ± 470
2,GCTGA,3830 ± 790
3,GTTT,3500 ± 280
4,ATTGG,4380 ± 340
5,TGGGT,4800 ± 400
6,AGTGA,4170 ± 240
7,GAGCC,2980 ± 340
8,ACCGG,3510 ± 440
9,TTGCT,3390 ± 350
10,ACGTA,3340 ± 430
11,ATTT,3590 ± 530
12,CTGAG,5080 ± 290
13,CTGAC,3250 ± 400
14,TCTG,3770 ± 330
15,AAGAG,4110 ± 390
16,TCAGA,4480 ± 330
17,GGGCA,4610 ± 440
18,GTAGC,3330 ± 460
19,CCTTT,4820 ± 380
20,GAGAG,3670 ± 390
21,CATGT,4690 ± 850
22,ATTCT,3770 ± 390
23,TAACG,2920 ± 430
24,TGACA,3540 ± 460
25,TATGC,3280 ± 350

row,Sequence,TdT poly-dT extension signal
1,ACTTG,2950 ± 500
2,AGAAG,4270 ± 520
3,ACCTC,2780 ± 250
4,TGAAA,4520 ± 520
5,ATGG,3210 ± 380
6,CTCAT,3450 ± 340
7,CAATT,3510 ± 470
8,TACGC,3470 ± 350
9,CACTA,2760 ± 420
10,GCCGA,3680 ± 440
11,TATAA,4010 ± 540
12,CTAGA,4110 ± 360
13,GTGTG,3550 ± 380
14,CTTG,3170 ± 450
15,GAAGA,3200 ± 430
16,CCCAT,4030 ± 460
17,CCGG,3690 ± 680
18,GTCT,3510 ± 240
19,TCATT,4730 ± 240
20,CTAG,3360 ± 430
21,GCTCA,3150 ± 350
22,TAGT,2430 ± 300
23,TCCCC,3060 ± 230
